The other results are listed elsewhere or left out. These are raw signals, not scaled to a control.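 First-pass screen: polymyxin B was added at a level that permeabilizes the Salmonella outer membrane while sparing the inner membrane. DMSO wells, with and without polymyxin B, defined maximum growth. Because plates differed from one another, each plate's data were ranked separately and the compounds with the lowest OD600 were carried forward as hits.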
Tested on: Salmonella enterica serovar Typhimurium SL1344
Assay: bacterial growth OD600 after 18 h with compound and polymyxin B; higher = more bacterial growth (less inhibition)
Settings: 50 µM, Mueller-Hinton broth

## O=C(NCCc1cccs1)c1cc(COc2ccc3c(c2)OCO3)[nH]n1
Polymyxin B 1 µg/mL
  bacterial growth OD600: 0.788

## COCCCN1C(=O)CC(CC(=O)N2CCC(c3ccccc3Cl)C2)(c2ccccc2OC)C1=O (stereo unspecified)
Polymyxin B 0.75 µg/mL
  bacterial growth OD600: 0.005

## O=C(CC1CC1)N1CCCC(N2CCN(Cc3ccc4c(c3)OCO4)CC2)C1 (stereo unspecified)
Polymyxin B 1 µg/mL
  bacterial growth OD600: 0.998

## O=C(NC1CC(=O)N(CCCc2ccccc2)C1)c1ccoc1 (stereo unspecified)
Polymyxin B 1 µg/mL
  bacterial growth OD600: 0.959

## Cc1cc(C)n(CC(C)NC(=O)c2oc3c(F)cccc3c2C)n1 (stereo unspecified)
Polymyxin B 1 µg/mL
  bacterial growth OD600: 0.902

## O=C(CN1CCOC1=O)NCc1nc(NCCCc2ccccc2)c2ccccc2n1
Polymyxin B 0.75 µg/mL
  bacterial growth OD600: 0.818

## CN(C)c1cccc(C(=O)N2CCCC(Nc3ccc(F)c(F)c3)C2)c1 (stereo unspecified)
Polymyxin B 1 µg/mL
  bacterial growth OD600: 0.446

## CSCC(=O)N1CCCC(CCc2c(F)cccc2F)C1 (stereo unspecified)
Polymyxin B 0.75 µg/mL
  bacterial growth OD600: 0.006

## O=C(c1ccco1)N1CCOc2ccc(CN3CCN(c4ccccc4)CC3)cc2C1
Polymyxin B 0.75 µg/mL
  bacterial growth OD600: 0.869

## Cc1cc(C)n(-c2cccc(CN3CC[C@@H](N4CCN(C)CC4)[C@H](O)C3)c2)n1
Polymyxin B 1 µg/mL
  bacterial growth OD600: 0.97

## CCOC(=O)CN(C)c1ccc(-c2nc(-c3ccccc3C)no2)cn1
Polymyxin B 0.75 µg/mL
  bacterial growth OD600: 0.712

## CC1(C(=O)NC2CC(=O)N(CCc3cccc(Cl)c3)C2)CC1 (stereo unspecified)
Polymyxin B 1 µg/mL
  bacterial growth OD600: 0.916

## COc1ccc(CCN2CCCC(CN(C)Cc3c(OC)cccc3OC)C2)cc1 (stereo unspecified)
Polymyxin B 0.75 µg/mL
  bacterial growth OD600: 1

## CCCn1ncc(CN2CCOC(CCc3ccccc3)C2)c1C (stereo unspecified)
Polymyxin B 0.75 µg/mL
  bacterial growth OD600: 0.975

## COc1ccc(CN2CCC(CO)(CCCc3ccccc3)CC2)cc1
Polymyxin B 1 µg/mL
  bacterial growth OD600: 0.93

## NC(=O)C1CCCN(Cc2ccc3c(c2)CN(Cc2cccn2-c2ccc(Cl)cn2)CCO3)C1 (stereo unspecified)
Polymyxin B 0.75 µg/mL
  bacterial growth OD600: 0.817

## COc1ccc(C(=O)NC2CC2)c(OC2CCN(Cc3ccccc3F)CC2)c1
Polymyxin B 1 µg/mL
  bacterial growth OD600: 1.01

## COC(=O)C1CCCCN1C(=O)c1c(OC)cc(=O)n2c1CCN(Cc1ccc(F)cc1)CC2 (stereo unspecified)
Polymyxin B 0.75 µg/mL
  bacterial growth OD600: 0.764

## COc1cccc(CNC2CCCc3nc(-c4cccnc4)ncc32)c1 (stereo unspecified)
Polymyxin B 1 µg/mL
  bacterial growth OD600: 0.777

## CCn1ccnc1CN(C)C(=O)c1cc(COc2cccc(C(C)=O)c2)on1
Polymyxin B 1 µg/mL
  bacterial growth OD600: 0.972

## CCN(Cc1ccncc1)C(=O)c1cnn(-c2ncc3c(n2)-c2ccccc2CCC3)c1C1CC1
Polymyxin B 0.75 µg/mL
  bacterial growth OD600: 0.961

From the supplement of paper PMC12889115
